According to the supplement of paper PMC8728848:
The other results are listed elsewhere or left out.

What was measured:
Assay in all cases: glycan array binding signal (z-score within array); higher = stronger binding
Conditions in all cases: glycan notation: IUPAC condensed, linker removed
[1] = target: Fuc(a1-2)Gal(b1-4)GlcNAc(b1-3)Gal(b1-4)GlcNAc(b1-3)Gal(b1-4)GlcNAc
Procedure, shortened: (§1)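 From the Consortium for Functional Glycomics database, 3228 arrays were curated, keeping only those whose protein sequence was available. Binding is given as a within-array Z-score averaged across arrays sharing a protein sequence and across linkers. Negative Z-scores can be read as non-binding.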

[2] = target: Fuc(a1-2)Gal(b1-4)GlcNAc(b1-3)GalNAc
Procedure, shortened: as §1

[3] = target: Fuc(a1-2)Gal(b1-4)GlcNAc(b1-3)[Fuc(a1-2)Gal(b1-4)GlcNAc(b1-6)]GalNAc
Procedure, shortened: as §1

[4] = target: Fuc(a1-2)Gal(b1-4)GlcNAc(b1-3)[Fuc(a1-3)[Gal(b1-4)]GlcNAc(b1-6)]Gal(b1-4)Glc
Procedure, shortened: as §1

[5] = target: Fuc(a1-2)Gal(b1-4)GlcNAc(b1-6)GalNAc
Procedure, shortened: as §1

[6] = target: Fuc(a1-2)Gal(b1-4)GlcNAc6S
Procedure, shortened: as §1

[7] = target: Fuc(a1-2)Gal(b1-4)[Fuc(a1-3)]GlcNAc
Procedure, shortened: as §1

[8] = target: Fuc(a1-2)Gal(b1-4)[Fuc(a1-3)]GlcNAc(b1-2)Man(a1-3)[Fuc(a1-2)Gal(b1-4)[Fuc(a1-3)]GlcNAc(b1-2)Man(a1-6)]Man(b1-4)GlcNAc(b1-4)[Fuc(a1-6)]GlcNAc
Procedure, shortened: as §1

[9] = target: Fuc(a1-2)Gal(b1-4)[Fuc(a1-3)]GlcNAc(b1-2)[Fuc(a1-2)Gal(b1-4)[Fuc(a1-3)]GlcNAc(b1-4)]Man(a1-3)[Fuc(a1-2)Gal(b1-4)[Fuc(a1-3)]GlcNAc(b1-2)Man(a1-6)]Man(b1-4)GlcNAc(b1-4)GlcNAc
Procedure, shortened: as §1

[10] = target: Fuc(a1-2)Gal(b1-4)[Fuc(a1-3)]GlcNAc(b1-3)Gal(b1-4)[Fuc(a1-3)]GlcNAc
Procedure, shortened: as §1

[11] = target: Fuc(a1-2)Gal(b1-4)[Fuc(a1-3)]GlcNAc(b1-3)Gal(b1-4)[Fuc(a1-3)]GlcNAc(b1-3)Gal(b1-4)[Fuc(a1-3)]GlcNAc
Procedure, shortened: as §1

[12] = target: Fuc(a1-2)Gal(b1-4)[Fuc(a1-3)]GlcNAc(b1-3)GalNAc
Procedure, shortened: as §1

[13] = target: Fuc(a1-2)Gal(b1-4)[Fuc(a1-3)]GlcNAc(b1-3)[Neu5Ac(a2-6)Gal(b1-4)GlcNAc(b1-6)]Gal(b1-4)Glc
Procedure, shortened: as §1

[14] = target: Fuc(a1-2)Gal3S(b1-4)GlcNAc
Procedure, shortened: as §1

[15] = target: Fuc(a1-2)Gal6S(b1-3)GlcNAc
Procedure, shortened: as §1

[16] = target: Fuc(a1-2)Gal6S(b1-3)GlcNAc6S
Procedure, shortened: as §1

[17] = target: Fuc(a1-2)Gal6S(b1-4)Glc
Procedure, shortened: as §1

[18] = target: Fuc(a1-2)Gal6S(b1-4)Glc6S
Procedure, shortened: as §1

[19] = target: Fuc(a1-2)[Gal(a1-3)]Gal
Procedure, shortened: as §1

[20] = target: Fuc(a1-2)[Gal(a1-3)]Gal(b1-3)GalNAc
Procedure, shortened: as §1

[21] = target: Fuc(a1-2)[Gal(a1-3)]Gal(b1-3)GalNAc(b1-3)Gal(a1-4)Gal(b1-4)Glc
Procedure, shortened: as §1

[22] = target: Fuc(a1-2)[Gal(a1-3)]Gal(b1-3)GlcNAc
Procedure, shortened: as §1

[23] = target: Fuc(a1-2)[Gal(a1-3)]Gal(b1-3)GlcNAc(b1-2)Man(a1-3)[Fuc(a1-2)[Gal(a1-3)]Gal(b1-3)GlcNAc(b1-2)Man(a1-6)]Man(b1-4)GlcNAc(b1-4)GlcNAc
Procedure, shortened: as §1

[24] = target: Fuc(a1-2)[Gal(a1-3)]Gal(b1-3)GlcNAc(b1-2)Man(a1-3)[Fuc(a1-2)[Gal(a1-3)]Gal(b1-3)GlcNAc(b1-2)Man(a1-6)]Man(b1-4)GlcNAc(b1-4)[Fuc(a1-6)]GlcNAc
Procedure, shortened: as §1

[25] = target: Fuc(a1-2)[Gal(a1-3)]Gal(b1-3)GlcNAc(b1-3)GalNAc
Procedure, shortened: as §1

[26] = target: Fuc(a1-2)[Gal(a1-3)]Gal(b1-3)GlcNAc(b1-6)GalNAc
Procedure, shortened: as §1

[27] = target: Fuc(a1-2)[Gal(a1-3)]Gal(b1-4)Glc
Procedure, shortened: as §1

[28] = target: Fuc(a1-2)[Gal(a1-3)]Gal(b1-4)GlcNAc
Procedure, shortened: as §1

[29] = target: Fuc(a1-2)[Gal(a1-3)]Gal(b1-4)GlcNAc(b1-2)Man
Procedure, shortened: as §1

[30] = target: Fuc(a1-2)[Gal(a1-3)]Gal(b1-4)GlcNAc(b1-2)Man(a1-3)[Fuc(a1-2)[Gal(a1-3)]Gal(b1-4)GlcNAc(b1-2)Man(a1-6)]Man(b1-4)GlcNAc(b1-4)GlcNAc
Procedure, shortened: as §1

B1: Clec18Av1 (Homo sapiens), A5D8T8 (protein)
chain: MLHPETSPGRGHLLAVLLALLGTAWAEVWPPQLQEQAPMAGALNRKESFLLLSLHNRLRSWVQPPAADMRRLDWSDSLAQLAQARAALCGTPTPSLASGLWRTLQVGWNMQLLPAGLVSFVEVVSLWFAEGQRYSHAAGECARNATCTHYTQLVWATSSQLGCGRHLCSAGQAAIEAFVCAYSPRGNWEVNGKTIVPYKKGAWCSLCTASVSGCFKAWDHAGGLCEVPRNPCRMSCQNHGRLNISTCHCHCPPGYTGRYCQVRCSLQCVHGRFREEECSCVCDIGYGGAQCATKVHFPFHTCDLRIDGDCFMVSSEADTYYRARMKCQRKGGVLAQIKSQKVQDILAFYLGRLETTNEVIDSDFETRNFWIGLTYKTAKDSFRWATGEHQAFTSFAFGQPDNHGFGNCVELQASAAFNWNDQRCKTRNRYICQFAQEHISRWGPGS
In the case of B1, the “glycan array binding signal (z-score)” value [1] is reported as -0.81, the “glycan array binding signal (z-score)” value [2] is reported as 0.829 and the “glycan array binding signal (z-score)” value [3] is reported as -0.032. For the same binder, the “glycan array binding signal (z-score)” value [4] was -0.443, the “glycan array binding signal (z-score)” value [5] was 0.166 and the “glycan array binding signal (z-score)” value [6] was 0.376. The “glycan array binding signal (z-score)” value [7] was -0.818, the “glycan array binding signal (z-score)” value [8] was 0.083 and the “glycan array binding signal (z-score)” value [9] was -0.666. The “glycan array binding signal (z-score)” value [10] was -0.839, the “glycan array binding signal (z-score)” value [11] was -0.815 and the “glycan array binding signal (z-score)” value [12] was 0.606. The “glycan array binding signal (z-score)” value [13] was -0.622, the “glycan array binding signal (z-score)” value [14] was 0.478 and the “glycan array binding signal (z-score)” value [15] was -0.35. The “glycan array binding signal (z-score)” value [16] was 1.5, the “glycan array binding signal (z-score)” value [17] was 2.53 and the “glycan array binding signal (z-score)” value [18] was -0.08. For the same binder, the “glycan array binding signal (z-score)” value [19] was -0.827, the “glycan array binding signal (z-score)” value [20] was -0.089 and the “glycan array binding signal (z-score)” value [21] was -0.861. For the same binder, the “glycan array binding signal (z-score)” value [22] was -0.136, the “glycan array binding signal (z-score)” value [23] was 0.049 and the “glycan array binding signal (z-score)” value [24] was -0.406. For the same binder, the “glycan array binding signal (z-score)” value [25] was 0.04, the “glycan array binding signal (z-score)” value [26] was -0.361 and the “glycan array binding signal (z-score)” value [27] was -0.793. For the same binder, the “glycan array binding signal (z-score)” value [28] was -0.69, the “glycan array binding signal (z-score)” value [29] was -0.057 and the “glycan array binding signal (z-score)” value [30] was 3.05.
